Source: PubChem BioAssay AID602196 (INSERM, 2012)
Purpose: 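Genes whose knock-down alters cisplatin killing of lung cancer cells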. Cells: human A549 lung cancer cells. Reagent: siRNA pair against human genes. Time to read-out: 48 h transfection before cisplatin; time from cisplatin to read-out not stated. Conditions: cisplatin at a dose killing half of control-siRNA cells; exact dose and duration not given. Measurement: 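Cisplatin cell death as a shift from the 50% death seen with control siRNA; siRNAs toxic or growth-blocking alone scored 0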. Direction: two-siRNA summed score (-2 to +2): higher = both siRNAs protect from cisplatin killing; -2 means both sensitise. Call rule: 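siRNAs harmful alone (LDH or WST-1) get 0; others get +1 for less and -1 for more cisplatin killing; genes are active when the two siRNAs give the same sign, summing to ±2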. Calls: active = both siRNAs shift cisplatin killing the same way; inactive = no consistent shift, or siRNA harmful alone.
The whole screen tested about 23,000 reagents; below is a part drawn at random. Of all reagents, 455 (2%) were called active. 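Active includes both protection and sensitisation; some change values fall well beyond the stated -50 to +50 range.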 Unmarked entries are inactive. Further read-outs or replicates are left out here. The record does not give: the amount of reagent.

gene | two-siRNA summed score (-2 to +2)
KCNH2 | 0
LOC440916 | 1
SCML2 | 0
H2AC4 | 0
SETBP1 | 0
KRT26 | 0
PTPRN2 | 0
BBS10 | 0
NLGN4Y | 0
LOC442700 | 1
LOC400481 | 0
RILPL1 | 0
LOC197387 (retired record) | 1
NEXN-AS1 | 0
SPANXD | -1
ATXN10 | 0
SCAF11 | 0
FOXC2 | 0
GPX7 | 0
AURKA | -1
OR14K1 | -1
U2SURP | 0
CCT8L2 | 0
UBL5 | 0
PYM1 | 0
CD200 | 0
LOC390488 | 1
WDR62 | 0
LOC401490 (retired record) | 0
MYO6 | 0
VBP1 | 0
DRAXIN | 1
LOC388823 | 0
LOC441781 | 2 (active)
BMI1 | -1
FPGT | 0
OR52N4 | 1
SGO1 | -1
C1orf21 | 0

Called active, of those listed so far:
gene | two-siRNA summed score (-2 to +2)
LOC441781 | 2 (active)
